PubChem BioAssay AID1671195 | Yale University – 2021
Purpose: 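Regulators of LDL receptor activity judged by labelled LDL uptake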 (primary screen). Cell system: human Huh7 hepatoma cells. Knock-down reagent: siRNA pool against human genes, 18 nM. Timing: about 2 to 2.5 days of knockdown, then 8 h LDL uptake. Treatment: DiI-labelled LDL at 30 µg/ml for 8 h, in lipoprotein-deficient serum medium. Read-out: 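Fluorescent LDL signal imaged in cells, scaled to the plate median, robust z-score for each replicate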. Scale: robust z-score: higher = more LDL uptake after knockdown. Rule for the call: 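a gene counts as active if at least two replicate z-scores exceed ±2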.
This is one part, drawn at random, of about 22,000 reagents. Of all reagents, about 1,510 (6.9%) got an active call. 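Active includes knockdowns raising or lowering LDL uptake; positive z-scores mean more uptake, negative mean less.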

With PHC1, what does the deposit list?
robust z-score, replicate 1: 1.5; robust z-score, replicate 2: 0.526; robust z-score, replicate 3: 1.05; outcome: inactive

What is on record for MRPS25?
robust z-score, replicate 1: 1.04; robust z-score, replicate 2: 0.523; robust z-score, replicate 3: 1.69; outcome: inactive

Which result is listed for RAP1A?
robust z-score, replicate 1: -0.692; robust z-score, replicate 2: -0.766; robust z-score, replicate 3: 0.499; outcome: inactive

What is on record for LOC389288 (retired record)?
robust z-score, replicate 1: -0.73; robust z-score, replicate 2: -1.2; robust z-score, replicate 3: -0.906; outcome: inactive

With KRCC1, what was measured?
robust z-score, replicate 1: 0.822; robust z-score, replicate 2: -1.47; robust z-score, replicate 3: -1.6; outcome: inactive

For DLX4, what was measured?
robust z-score, replicate 1: -0.972; robust z-score, replicate 2: -0.15; robust z-score, replicate 3: 0.183; outcome: inactive

For RAMP2, what does the deposit list?
robust z-score, replicate 1: -0.188; robust z-score, replicate 2: -0.442; robust z-score, replicate 3: -1.02; outcome: inactive

Taken from above.
DLX4, robust z-score, replicate 3: 0.183
Under “robust z-score, replicate 3”, LOC389288 (retired record) reads -0.906

Continued:
Which result is listed for OR1D2?
robust z-score, replicate 1: 0.663; robust z-score, replicate 2: 0.489; robust z-score, replicate 3: 0.225; outcome: inactive

What did the screen give for CALCB?
robust z-score, replicate 1: 0.0249; robust z-score, replicate 2: 0.216; robust z-score, replicate 3: -0.532; outcome: inactive

What did the screen give for LOC440789 (retired record)?
robust z-score, replicate 1: -0.307; robust z-score, replicate 2: -0.384; robust z-score, replicate 3: -0.308; outcome: inactive

What did the screen give for PPP2R5E?
robust z-score, replicate 1: -2.89; robust z-score, replicate 2: -3.15; robust z-score, replicate 3: -2.85; outcome: active

Which result is listed for SMAP1?
robust z-score, replicate 1: 2.54; robust z-score, replicate 2: 2.63; robust z-score, replicate 3: 2.21; outcome: active

What did the screen give for RNF121?
robust z-score, replicate 1: 0.604; robust z-score, replicate 2: 1.52; robust z-score, replicate 3: 1.98; outcome: inactive

How did the screen score HPCAL4?
robust z-score, replicate 1: 0.259; robust z-score, replicate 2: 0.316; robust z-score, replicate 3: 0.601; outcome: inactive

With TRIM13, what was measured?
robust z-score, replicate 1: 2.24; robust z-score, replicate 2: 0.618; robust z-score, replicate 3: 1.42; outcome: inactive

How did the screen score IP6K1?
robust z-score, replicate 1: -0.955; robust z-score, replicate 2: -1.08; robust z-score, replicate 3: -0.385; outcome: inactive
